This test is described as follows: qHTS Assay for Lipid Storage Modulators in Drosophila S3 Cells.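 As to cell number change: cells counted by Cell Tracker Red CMTPX staining in the red channel.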 Particulars: BODIPY lipid droplet fluorescence, 18-24 h; for cell number change: measured here: cell count max response, cells fed with added oleic acid. Summed up:
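Drosophila S3 cells got compounds at several concentrations plus oleic acid (400 uM solution). Laser-scanning cytometry with 488 nm excitation read lipid droplets at 500-530 nm and cells at 575-640 nm. Percent activity was relative to 20 uM Triacsin C.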

The mark [1] stands for this setting: measured here: lipid fluorescence (Fed channel) AC50, cells fed with added oleic acid.
[2] abbreviates: measured here: cell number channel AC50, cells fed with added oleic acid.

Each structure is given as a SMILES string. The list shows a part of the results. These are further read-outs of the screen, such as a control signal, another cell line or another target. No call is given for them. Compounds called inactive in the main read-out are mostly missing here. The note in brackets gives the kind of curve behind each potency; many fits are weak.

The AC50 is the midpoint of the concentration-response curve, whichever way the signal moves. Read a high AC50 as weaker potency. Turning to `CC(=O)NCCOc1ccc(C(=O)O)cc1`, the cell number change came to 8.35%. Also, under setting [1], the AC50 was 0.82 µM [falling, full curve].

In the case of `Cc1noc(C)c1C(=O)N(CC(C)C)c1nc2ccccc2s1`, the cell number change amounted to 63.4%. Further, the AC50 under setting [2] is 29.1 µM [rising, single point].

For the compound `S=C(c1cn(CCOc2cccc3ccccc23)c2ccccc12)N1CCCC1`, the cell number change is 28%. Further, the AC50 under setting [1] is 6.51 µM [rising, partial curve].

For `CN(C)Cc1nc2ccccc2c(=O)n1Cc1nc(C(C)(C)C)cs1`, the cell number change was -22.6%. Further, the half-maximal activity concentration (AC50) under setting [1] is 0.326 µM [rising, partial curve, poor fit].

For the compound `O=C1CC(C(F)(F)C(F)(F)C(F)(F)C(F)(F)F)=Nc2ccccc2N1`, the cell number change is -27.8%.

Take `COc1cc2ccccc2cc1C(=O)Nc1nc(C)c(C(C)=O)s1`: the cell number change was found to be 2.99%. Further, the AC50 under setting [1] was 20.6 µM [rising, partial curve].

As to `CC(C)C(=O)Nc1cccc2nsnc12`, the cell number change was -9.8%. Also, under setting [1], the AC50 is 0.461 µM [falling, partial curve].

With `Cc1ccc(S(=O)(=O)N2CC=C(C(=O)NC3CCCC3)CC2)cc1`, the AC50 under setting [1] is 6.51 µM [falling, single point].

For the compound `COc1ccccc1CNC(=O)COC(=O)c1ccc(NC(N)=O)cc1`, the cell number change amounted to 24.9%. The AC50 under setting [1] was 11.6 µM [rising, partial curve].

For the compound `Cc1ccc(CSc2nnc(SCC(=O)N/N=C/C=C/c3ccccc3[N+](=O)[O-])s2)cc1`, the cell number change was -52.3%. Further, the AC50 under setting [2] was 20.6 µM [falling, single point]. The AC50 under setting [1] is 1.84 µM [rising, partial curve].

For the compound `Cc1ccccc1OCCCC(=O)Nc1ccc(Br)cc1`, the cell number change was found to be 58.4%.

`Cc1ccc2cc(CN(Cc3ccco3)C(=S)NCC3CCCO3)c(=O)[nH]c2c1C` (configuration not stated): the cell number change worked out at 14.3%. Besides, the AC50 under setting [1] is 6.51 µM [rising, single point].

As for `COc1ccc(/C=N/NC(=O)c2ccc(CN3c4cccc5cccc(c45)S3(=O)=O)cc2)cc1`, the cell number change is 5.97%. For the same compound, the AC50 under setting [1] is 29.1 µM [rising, single point].

Turning to `COCCn1nnnc1CN1CCN(c2cccc(C(F)(F)F)c2)CC1`, the cell number change was 55.3%. The AC50 under setting [2] is 5.8 µM [rising, full curve].

For `COc1ccc(-c2cc(C(=O)NCc3ccco3)no2)cc1OC`, the cell number change is 33.5%. For the same compound, under setting [2], the AC50 is 2.06 µM [rising, full curve]. The AC50 under setting [1] was 5.17 µM [rising, single point].

Turning to `Clc1ccc2nc(-c3ccccc3)cn2c1`, the cell number change is 13.6%. Also, the AC50 under setting [1] is 10.3 µM [rising, single point].

On to `COC(=O)Nc1nc2ccc(SC(C)C)cc2[nH]1`, for which the cell number change is -7.17%. The AC50 under setting [2] was 0.517 µM [rising, single point]. The AC50 under setting [1] is 0.517 µM [rising, full curve].

Regarding `CCC(C)(C)n1nnnc1C(c1ccncc1)N1CCN(c2cccc(OC)c2)CC1` (configuration not stated), under setting [2], the AC50 was 6.51 µM [rising, single point].

On to `Cc1ccc(NS(=O)(=O)c2ccc3c(c2)n(C)c(=O)n3C)c(C)c1`, for which the cell number change came to 15.2%. Under setting [1], the AC50 was 6.51 µM [rising, single point].

Turning to `Cc1ccc(OCC(=O)NNC(=O)C(C)Sc2ncnc3sc(C)c(C)c23)cc1` (configuration not stated), the AC50 is 0.103 µM [rising, full curve, poor fit] under setting [2] and 0.058 µM [rising, full curve, poor fit] under setting [1].

In the case of `Cc1cc(C)n2ncc(C(=O)NCc3ccccc3)c2n1`, the AC50 by setting is: under setting [2], 0.411 µM [rising, partial curve, poor fit]; under setting [1], 0.517 µM [rising, partial curve, poor fit].

Turning to `COc1ccc(CNC(=O)C(NS(=O)(=O)c2ccc3c(c2)CCCN3C(C)=O)C(C)C)cc1` (configuration not stated), the cell number change amounted to 7.09%. For the same compound, the half-maximal activity concentration (AC50) under setting [1] is 0.13 µM [rising, full curve, poor fit].

`CCc1nnc(NC(=O)CSc2nnc(COc3ccccc3)n2Cc2ccccc2)s1`: the AC50 runs as follows: under setting [2], 6.51 µM [rising, single point]; under setting [1], 29.1 µM [rising, single point].

As for `O=C(N/N=C\c1ccc(Oc2ccccc2)cc1)c1csnn1`, the cell number change stood at 39.1%. For the same compound, the AC50 under setting [2] was 18.4 µM [rising, partial curve, poor fit]. Also, the AC50 under setting [1] was 29.1 µM [rising, partial curve, poor fit].

As to `O=C(NC1CCCC1)C1c2ccccc2C(=O)N1CCCN1CCOCC1` (configuration not stated), the cell number change was 31.1%. In addition, the AC50 under setting [2] was 10.3 µM [rising, partial curve]. Also, the AC50 under setting [1] was 0.103 µM [falling, full curve, poor fit].

As to `CCOC(=O)Cn1nnc(-c2cc(OC)c(OC)c(OC)c2)n1`, the cell number change was determined as 40.7%.

Turning to `CCOc1cc(C)c(C(C)C)cc1S(=O)(=O)n1ccc(C)n1`, the cell number change was found to be 13.5%. Under setting [1], the AC50 was 0.82 µM [rising, single point].

Regarding `CC(C#N)Sc1ccc(S(=O)(=O)N2CCCCC2)cn1` (configuration not stated), the cell number change turned out to be 13.5%. Further, the AC50 under setting [1] was 0.00461 µM [falling, full curve, poor fit].

Take `O=C(CSc1ccc2ccccc2c1)NCCc1ccc(O)c(O)c1`: the cell number change was -3.11%. Also, the AC50 under setting [1] is 29.1 µM [falling, partial curve, poor fit].

`CCOC(=O)C1CCCN(c2c(N3CCN(c4ccccn4)CC3)c(=O)c2=O)C1` (configuration not stated): under setting [2], the AC50 was 0.517 µM [rising, full curve].

With `CSc1ncnc2c1ccn2CC(=O)Nc1ccc(C)c(C)c1`, the cell number change is -8.66%. Besides, the AC50 under setting [2] was 0.92 µM [falling, full curve]. Moreover, the AC50 under setting [1] was 20.6 µM [falling, partial curve, poor fit].

In the case of `O=C(NNC(=O)c1ccccc1F)c1ccco1`, the cell number change was -2.63%.

`CCN1CCCC1CNC(=O)c1ccc2c(c1)NC(=O)/C(=C\c1ccc(C)cc1)S2` (configuration not stated): the cell number change was -23.5%. Besides, the AC50 under setting [1] was 2.06 µM [falling, single point].

On to `Cc1cc(Sc2nc(N(C)C)nc(N(C)C)n2)nc(Cl)n1`, for which the cell number change stood at 2.31%.

As for `COc1ccc(S(=O)(=O)NC(C)C(=O)NCc2ccc3c(c2)OCO3)cc1OC` (configuration not stated), the cell number change was 12%. Moreover, the AC50 under setting [1] is 29.1 µM [rising, single point].

With `O=C(NCc1cccs1)c1nc(-c2cccs2)no1`, the cell number change was -6.1%. In addition, the AC50 under setting [2] is 0.146 µM [falling, full curve, poor fit].

With `CCOC(=O)C1=C(C)N(CCCCCC(=O)O)C(=O)NC1c1ccccc1OC(=O)c1cccs1` (configuration not stated), the cell number change was -8.49%. For the same compound, the concentration at half-maximal activity (AC50) under setting [1] was 32.6 µM [falling, partial curve, poor fit].

Take `Cc1cc(C)nc(NNC(=O)NC2CCCCC2)n1`: the cell number change worked out at 6.38%. Moreover, the AC50 under setting [1] is 1.46 µM [falling, full curve, poor fit].

For the compound `O=C(Nc1ccc(N2CCOCC2)c(Cl)c1)c1cccnc1`, the AC50 under setting [2] was 6.51 µM [falling, single point].

For `Cc1ccc(SCC(=O)OCC(=O)N(C)CC(=O)Nc2ccccc2Cl)cc1`, the cell number change was -34.9%. In addition, the AC50 under setting [2] is 6.51 µM [falling, full curve, poor fit].

As to `S=c1oc(-c2ccncc2)nn1CCc1ccncc1`, the AC50 under setting [1] is 0.651 µM [rising, full curve, poor fit].

For `O=C(CN1c2ccccc2S(=O)(=O)c2ccccc21)NCc1ccccc1`, the cell number change came to 31.9%. Also, under setting [2], the AC50 is 5.8 µM [rising, full curve, poor fit]. Under setting [1], the AC50 is 2.91 µM [falling, full curve].

As for `CC(=O)Nc1cccc(NC(=O)C(=O)NCC(c2ccco2)N2CCc3ccccc32)c1` (configuration not stated), the cell number change was found to be 23.5%. Moreover, the AC50 under setting [1] is 1.3 µM [rising, partial curve].

In the case of `Oc1cccc(/C=N/NC(=S)Nc2cccnc2)c1O`, the cell number change is -6.35%. Under setting [1], the AC50 was 0.184 µM [falling, full curve, poor fit].

On to `CC(=O)Nc1ccc(NC(=O)C(C)OC(=O)c2ccc(OCc3c(C)noc3C)cc2)cc1` (configuration not stated), for which, under setting [1], the AC50 was 6.51 µM [falling, single point].

With `Cc1cc2c(Nc3ccc(O)cc3)ncnc2s1`, the cell number change is -39%. For the same compound, the AC50 under setting [2] is 29.1 µM [falling, single point]. The AC50 under setting [1] was 29.1 µM [rising, single point].

Consider `Cc1c(NC(=O)/C=C/c2cn(-c3ccccc3)nc2-c2ccccc2)c(=O)n(-c2ccccc2)n1C`, for which the cell number change was 29.4%.

Turning to `COc1cc(C2C(C#N)=C(N)Oc3cc(C)n(CC4CCCO4)c(=O)c32)cc2c1OCO2` (configuration not stated), the AC50 under setting [1] was 0.82 µM [rising, full curve, poor fit].

Regarding `CC(C)C[C@@H](CO)N1CCN(Cc2ccccc2)CCC1=O`, the cell number change was found to be 17.4%. Besides, the AC50 under setting [1] is 6.51 µM [rising, partial curve, poor fit].

Turning to `COc1ccccc1CNC(=O)C1CCCN(S(=O)(=O)c2c(C)[nH]c(=O)[nH]c2=O)C1` (configuration not stated), the cell number change was -4.16%. Moreover, under setting [1], the half-maximal activity concentration (AC50) is 6.51 µM [rising, single point].

Turning to `COc1cccc2cc(C(=O)N3CCC(C)CC3)c(=O)oc12`, the cell number change was determined as 14.1%.

Regarding `COc1cc(C(=O)NCCC(=O)NC(C)CCc2ccccc2)cc(OC)c1OC` (configuration not stated), the cell number change came to 19.1%. Also, under setting [2], the half-maximal activity concentration (AC50) is 2.91 µM [falling, partial curve, poor fit]. For the same compound, the AC50 under setting [1] is 29.1 µM [rising, single point].

Turning to `O=c1sc2ccccc2c(N2CCN(c3ccccc3)CC2)c1[N+](=O)[O-]`, the cell number change was -24.3%. In addition, the AC50 under setting [1] is 0.92 µM [falling, full curve, poor fit].

`Fc1ccccc1N1CCN(C(c2ccccn2)c2nnnn2C2CCCCC2)CC1` (configuration not stated): the cell number change came to 42%. Moreover, the AC50 under setting [2] was 3.66 µM [rising, full curve]. In addition, the AC50 under setting [1] was 6.51 µM [rising, single point].

As to `CC(=O)N1CCN(Cc2nc3cc(NC(=O)Nc4ccccc4)ccc3n2C)CC1`, the cell number change is 134%. The concentration at half-maximal activity (AC50) under setting [1] is 4.61 µM [falling, single point].

Regarding `CCCC(NS(=O)(=O)c1ccc(C)cc1)C(=O)O` (configuration not stated), the cell number change came out at 17.2%.

Regarding `COc1cccc(CN(C(=O)Cc2c[nH]c3ccccc23)C(C(=O)NC2CCCCC2)c2ccc(C)o2)c1` (configuration not stated), the cell number change was -26.9%. Moreover, under setting [1], the AC50 was 16.4 µM [falling, partial curve].

As to `Cc1cc(C)c(NC(=O)Cn2cc3c(n2)CCCC3)c(C)c1`, the cell number change was 73.7%. Further, under setting [2], the AC50 is 16.4 µM [rising, partial curve, poor fit]. Also, the AC50 under setting [1] was 0.731 µM [rising, full curve].
